Data taken from patent publication US11306122B2 (United States Government As Represented By The Department …, priority 2019, dated 2022).

Test: peptide made by a vendor
Details: whole synthesis; run 1

## QDDSKVFKEGSCLLADDN
  purity (crude or final not stated): 96.65%

End groups of sequences in plain letters are not given here.
